# According to patent publication US20230142542A1, “USE OF SUBSTITUTED 1,2,4-OXADIAZOLES FOR COMBATING PHYTOPATHOGENIC FUNGI” (BASF SE, priority 2020, published 2023):
# Some of these results come from one statement about several compounds together.
# Tested on: Puccinia recondita
# Experiment: Preventative control of brown rust on wheat (glass house trial)
# Assay type: in vivo
# Conditions: 250 ppm, sprayed seven days before inoculation (preventative), wheat seedlings; untreated plants 80%
smiles,measurement,value
"O=C(O)C(F)(F)c1ccc(-c2noc(C(F)(F)F)n2)cc1 [I-2, 2,2-difluoro-2-[4-[5-(trifluoromethyl)-1,2,4-oxadiazol-3-yl]phenyl]acetic acid]",diseased leaf area,at most 12%
